Results reported in US7687515B2, “6-phenyl-1H-imidazo[4,5-c]pyridine-4-carbonitrile derivatives” (priority 2006, dated 2010).
Some results were stated once for a whole list of compounds, not compound by compound.

Chains of the proteins cited; added tags and fusions are not shown. Residues count along the entry.
UniProt P25774, 115-331: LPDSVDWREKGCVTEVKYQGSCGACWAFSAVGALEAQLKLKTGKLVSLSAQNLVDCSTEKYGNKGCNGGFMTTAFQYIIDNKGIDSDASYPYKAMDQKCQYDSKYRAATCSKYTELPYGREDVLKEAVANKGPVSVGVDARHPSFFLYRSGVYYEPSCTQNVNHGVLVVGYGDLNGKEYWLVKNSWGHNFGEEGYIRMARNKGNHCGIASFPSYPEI

Target: recombinant human Cathepsin S (Homo sapiens, UniProt P25774)
Experiment: Cathepsin S assay: inhibition of recombinant human Cathepsin S (Z-Val-Val-Arg-AMC fluorescence)
Assay type: biochemical
Settings: activated recombinant human cathepsin S, substrate Z-Val-Val-Arg-AMC, pH5.5, fluorescence at 20 minutes, dose response curve
Experimental: Cathepsin S Assay Procedure
25 μl of a 2 mg/l solution of activated recombinant human cathepsin S, in assay buffer, is then added to the well, yielding a final inhibitor concentration of 10 μM.
Enzyme activity is determined by measuring the fluorescence of the liberated aminomethylcoumarin at […] using 390 nm excitation, at 20 minutes. Percentage enzyme activity is calculated by comparison of this activity to that of a solution containing no inhibitor.

[4-Cyano-6-(4-ethoxy-3-trifluoromethyl-phenyl)-imidazo[4,5-c]pyridin-1-yl]-butyric acid [Example 4]
pIC50 (negative logarithm of the IC50 concentration) for inhibition of human cathepsin S: more than 7
